Data as given in US7960377B2 (priority 2008, dated 2011).
Some results were stated once for a whole list of compounds, not compound by compound.

By UniProt entry, the sequences of proteins in these tests, tags left out.
UniProt P34972, whole entry: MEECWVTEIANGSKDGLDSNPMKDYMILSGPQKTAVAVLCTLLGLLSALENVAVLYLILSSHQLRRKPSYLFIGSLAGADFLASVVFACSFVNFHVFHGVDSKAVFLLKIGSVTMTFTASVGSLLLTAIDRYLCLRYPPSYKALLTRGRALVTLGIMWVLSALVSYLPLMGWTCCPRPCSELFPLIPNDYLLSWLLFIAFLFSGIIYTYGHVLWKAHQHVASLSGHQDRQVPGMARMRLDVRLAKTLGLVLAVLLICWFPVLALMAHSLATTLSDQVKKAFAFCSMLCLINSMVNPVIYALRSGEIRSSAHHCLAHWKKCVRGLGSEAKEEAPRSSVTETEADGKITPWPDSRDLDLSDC

What follows are compounds tested against human CB2 receptor (Homo sapiens, UniProt P34972). Conditions: read-out: EC50 values for human CB2 receptor; change in intracellular cAMP, CHO-K1 hCB2 cells; EC50 bins in nM.
Type: cell-based
For COCC1CCCCN1C(=O)c1cnc2c(c1)N(S(=O)(=O)c1ccc(C(F)(F)F)cc1)CCO2 (racemic) [Example 74, +/− (2-(methoxymethyl)-piperidin-1-yl)(1-(4-(trifluoromethyl)phenylsulf-onyl)-2,3-dihydro-1H-pyrido[2,3-b][1,4]oxazin-7-yl)methanone], the EC50 was 30 to 300 nM. Compound CC(C)(C)NC(=O)c1cnc2c(c1)N(S(=O)(=O)c1cccc(F)c1)CCO2 [Example 20, N-tert-butyl-1-(3-fluorophenylsulfonyl)-2,3-dihydro-1H-pyrido[2,3-b][1,4]oxazine-7-carboxamide] has an EC50 of 30 to 300 nM. For O=C(NC1CCCC1)c1cnc2c(c1)N(S(=O)(=O)c1cccc(F)c1)CCO2 [Example 21, N-cyclopentyl-1-(3-fluorophenylsulfonyl)-2,3-dihydro-1H-pyrido[2,3-b][1,4]oxazine-7-carboxamide], the EC50 was 30 to 300 nM. In the case of CC(C)(C)NC(=O)c1cnc2c(c1)N(S(=O)(=O)c1ccccc1F)CCO2 [Example 22, N-tert-butyl-1-(2-fluorophenylsulfonyl)-2,3-dihydro-1H-pyrido[2,3-b][1,4]oxazine-7-carboxamide], the EC50 is reported as 30 to 300 nM. In the case of O=C(NC1CCCC1)c1cnc2c(c1)N(S(=O)(=O)c1ccccc1F)CCO2 [Example 23, N-cyclopentyl-1-(2-fluorophenylsulfonyl)-2,3-dihydro-1H-pyrido[2,3-b][1,4]oxazine-7-carboxamide], the EC50 is reported as 30 to 300 nM. In the case of CC(C)(C)NC(=O)c1cnc2c(c1)N(S(=O)(=O)c1ccc(C(F)(F)F)cc1)CCO2 [Example 26, N-tert-butyl-1-(4-(trifluoromethyl)phenylsulf-onyl)-2,3-dihydro-1H-pyrido[2,3-b][1,4]oxazine-7-carboxamide], the EC50 is reported as 30 to 300 nM. O=C(NC1CCCC1)c1cnc2c(c1)N(S(=O)(=O)c1ccc(C(F)(F)F)cc1)CCO2 [Example 27, N-cyclopentyl-1-(4-(trifluoromethyl)phenylsulf-onyl)-2,3-dihydro-1H-pyrido[2,3-b][1,4]oxazine-7-carboxamide] was tested, and the EC50 was 30 to 300 nM. With O=C(NCC1CC1)c1cnc2c(c1)N(S(=O)(=O)c1ccc(Cl)cc1)CCO2 [Example 33, 1-(4-chlorophenyl-sulfonyl)-N-(cyclopropyl-methyl)-2,3-dihydro-1H-pyrido[2,3-b][1,4]oxazine-7-carboxamide] the EC50 was 30 to 300 nM. In the case of CN(C(=O)c1cnc2c(c1)N(S(=O)(=O)c1ccc(C(F)(F)F)cc1)CCO2)C(C)(C)C [Example 40, N-tert-butyl-N-methyl-1-(4-(trifluoromethyl)-phenylsulfonyl)-2,3-dihydro-1H-pyrido[2,3-b][1,4]oxazine-7-carboxamide], the EC50 is reported as 30 to 300 nM. CC(C)(CN1CCOCC1)NC(=O)c1cnc2c(c1)N(S(=O)(=O)c1ccc(C(F)(F)F)cc1)CCO2 [Example 46, N-(2-methyl-1-morpholinopropan-2-yl)-1-(4-(trifluoromethyl)phenylsulfonyl)-2,3-dihydro-1H-pyrido[2,3-b][1,4]oxazine-7-carboxamide] showed an EC50 of 30 to 300 nM. CC(C)(C)NC(=O)c1cnc2c(c1)N(S(=O)(=O)c1ccc(OC(F)(F)F)cc1)CCO2 [Example 48, N-tert-butyl-1-(4-(trifluoromethoxy)phenyl-sulfonyl)-2,3-dihydro-1H-pyrido[2,3-b][1,4]oxazine-7-carboxamide] gave an EC50 of 30 to 300 nM. Work on Cc1ccc(S(=O)(=O)N2CCOc3ncc(C(=O)NC(C)(C)C)cc32)s1 [Example 59, N-tert-butyl-1-(5-methylthiophen-2-ylsulfonyl)-2,3-dihydro-1H-pyrido[2,3-b][1,4]oxazine-7-carboxamide] yielded an EC50 of 30 to 300 nM. CCC(CO)(CO)NC(=O)c1cnc2c(c1)N(S(=O)(=O)c1ccc(C(F)(F)F)cc1)CCO2 [Example 64, N-(1-hydroxy-2-(hydroxymethyl)butan-2-yl)-1-(4-(trifluoromethyl)phenylsulf-onyl)-2,3-dihydro-1H-pyrido[2,3-b][1,4]oxazine-7-carboxamide] gave an EC50 of 30 to 300 nM. In the case of CC(C)(C)CC(C)(C)NC(=O)c1cnc2c(c1)N(S(=O)(=O)c1ccc(C(F)(F)F)cc1)CCO2 [Example 65, 1-(4-(trifluoromethyl)-phenylsulfonyl)-N-(2,4,4-trimethylpentan-2-yl)-2,3-dihydro-1H-pyrido[2,3-b][1,4]oxazine-7-carboxamide], the EC50 is reported as 30 to 300 nM. CCOC(=O)C1(NC(=O)c2cnc3c(c2)N(S(=O)(=O)c2ccc(C(F)(F)F)cc2)CCO3)CC1 [Example 70, ethyl 1-(1-(4-(trifluoromethyl)phenylsulf-onyl)-2,3-dihydro-1H-pyrido[2,3-b][1,4]oxazine-7-carboxamido)-cyclopropanecarboxylate] showed an EC50 of 30 to 300 nM. CCOC(=O)C1(NC(=O)c2cnc3c(c2)N(S(=O)(=O)c2ccc(C(F)(F)F)cc2)CCO3)CCC1 [Example 71, ethyl 1-(1-(4-(trifluoro-methyl)phenylsulfonyl)-2,3-dihydro-1H-pyrido-[2,3-b][1,4]oxazine-7-carboxamido)cyclo-butanecarboxylate] was tested, and the EC50 was 30 to 300 nM. For Cc1csc(S(=O)(=O)N2CCOc3ncc(C(=O)NC(C)(C)C)cc32)c1 [Example 92, N-tert-butyl-1-(4-methylthiophen-2-ylsulfonyl)-2,3-dihydro-1H-pyrido[2,3-b][1,4]oxazine-7-carboxamide], the EC50 was 30 to 300 nM. For CC(C)(CO)NC(=O)c1cnc2c(c1)N(S(=O)(=O)c1ccc(Cl)c(Cl)c1)CCO2 [Example 95, 1-(3,4-dichlorophenylsulfonyl)-N-(1-hydroxy-2-methylpropan-2-yl)-2,3-dihydro-1H-pyrido[2,3-b][1,4]oxazine-7-carboxamide], the EC50 was 30 to 300 nM. Compound CC(C)(CO)NC(=O)c1cnc2c(c1)N(S(=O)(=O)c1ccc(Cl)cc1F)CCO2 [Example 96, 1-(4-chloro-2-fluorophenylsulfonyl)-N-(1-hydroxy-2-methylpropan-2-yl)-2,3-dihydro-1H-pyrido[2,3-b][1,4]oxazine-7-carboxamide] has an EC50 of 30 to 300 nM. For CC(C)(CO)NC(=O)c1cnc2c(c1)N(S(=O)(=O)c1ccc(F)c(Cl)c1)CCO2 [Example 99, 1-(3-chloro-4-fluorophenylsulfonyl)-N-(1-hydroxy-2-methylpropan-2-yl)-2,3-dihydro-1H-pyrido[2,3-b][1,4]oxazine-7-carboxamide], the EC50 was 30 to 300 nM. In the case of CC(C)(CN1CCOCC1)NC(=O)c1cnc2c(c1)N(S(=O)(=O)c1ccc(Cl)cc1F)CCO2 [Example 113, 1-(4-chloro-2-fluorophenylsulfonyl)-N-(2-methyl-1-morpholinopropan-2-yl)-2,3-dihydro-1H-pyrido[2,3-b][1,4]oxazine-7-carboxamide], the EC50 is reported as 30 to 300 nM.

Same assay, conditions: read-out: EC50 values for human CB2 receptor; change in intracellular cAMP, CHO-K1 hCB2 cells; bin >300 nM-3 μM, units given in the value
COCCCNC(=O)c1cnc2c(c1)N(S(=O)(=O)c1ccc(F)cc1)CCO2 [Example 12] gave an EC50 of 300 to 3000 nM. In the case of CNC(=O)[C@@H](NC(=O)c1cnc2c(c1)N(S(=O)(=O)c1ccc(F)cc1)CCO2)C(C)(C)C [Example 15, (S)-N-(3,3-dimethyl-1-(methylamino)-1-oxobutan-2-yl)-1-(4-fluorophenyl-sulfonyl)-2,3-dihydro-1H-pyrido [2,3-b][1,4]oxazine-7-carboxamide], the EC50 is reported as 300 to 3000 nM. In the case of COC(=O)[C@@H]1CCCCN1C(=O)c1cnc2c(c1)N(S(=O)(=O)c1ccc(C(F)(F)F)cc1)CCO2 [Example 68, (S)-methyl 1-(1-(4-(trifluoromethyl)phenylsulf-onyl)-2,3-dihydro-1H-pyrido[2,3-b][1,4]oxazine-7-carbonyl)piperidine-2-carboxylate], the EC50 is reported as 300 to 3000 nM. CC(C)(C)NC(=O)c1cnc2c(c1)N(S(=O)(=O)c1cccc(C(F)(F)F)c1)CCO2 [Example 83, N-tert-butyl-1-(3-(trifluoromethyl)phenylsulf-onyl)-2,3-dihydro-1H-pyrido[2,3-b][1,4]oxazine-7-carboxamide] was tested, and the EC50 was 300 to 3000 nM. CC(C)(C)NC(=O)c1cnc2c(c1)N(S(=O)(=O)c1cccc(Cl)c1)CCO2 [Example 89, N-tert-butyl-1-(3-chlorophenylsulfonyl)-2,3-dihydro-1H-pyrido[2,3-b][1,4]oxazine-7-carboxamide] showed an EC50 of 300 to 3000 nM. CC(C)(C)NC(=O)c1cnc2c(c1)N(S(=O)(=O)c1ccsc1)CCO2 [Example 90, N-tert-butyl-1-(thiophen-3-ylsulfonyl)-2,3-dihydro-1H-pyrido[2,3-b][1,4]oxazine-7-carboxamide] gave an EC50 of 300 to 3000 nM. With CC(C)(O)CNC(=O)c1cnc2c(c1)N(S(=O)(=O)c1ccc(Cl)cc1F)CCO2 [Example 97, 1-(4-chloro-2-fluorophenylsulfonyl)-N-(2-hydroxy-2-methylpropyl)-2,3-dihydro-1H-pyrido[2,3-b][1,4]oxazine-7-carboxamide] the EC50 was 300 to 3000 nM. CC(C)(O)CNC(=O)c1cnc2c(c1)N(S(=O)(=O)c1ccc(Cl)c(Cl)c1)CCO2 [Example 98] was tested, and the EC50 was 300 to 3000 nM. For COc1ccc(S(=O)(=O)N2CCOc3ncc(C(=O)NC(C)(C)CO)cc32)c(F)c1 [Example 103, 1-(2-fluoro-4-methoxyphenylsulfonyl)-N-(1-hydroxy-2-methylpropan-2-yl)-2,3-dihydro-1H-pyrido[2,3-b][1,4]oxazine-7-carboxamide], the EC50 was 300 to 3000 nM. For COc1ccc(S(=O)(=O)N2CCOc3ncc(C(=O)NCC(C)(C)O)cc32)cc1Cl [Example 104], the EC50 was 300 to 3000 nM. In the case of O=C(N[C@@H]1CCC[C@H]1O)c1cnc2c(c1)N(S(=O)(=O)c1ccc(Cl)c(Cl)c1)CCO2 [Example 133, 1-(3,4-dichlorophenyl-sulfonyl)-N-((1R,2R)-2-hydroxycyclopentyl)-2,3-dihydro-1H-pyrido[2,3-b][1,4]oxazine-7-carboxamide], the EC50 is reported as 300 to 3000 nM.

Same assay, conditions: read-out: EC50 values for human CB2 receptor; change in intracellular cAMP, CHO-K1 hCB2 cells; bin in μM
O=C(NC1CCCC1)c1cnc2c(c1)N(S(=O)(=O)c1cccnc1)CCO2 [Example 17, N-cyclopentyl-1-(pyridin-3-ylsulfonyl)-2,3-dihydro-1H-pyrido[2,3-b][1,4]oxazine-7-carboxamide] gave an EC50 of 3000 to 30000 nM. Work on CN1CCN(C(=O)c2cnc3c(c2)N(S(=O)(=O)c2ccc(Cl)c(Cl)c2)CCO3)CC1 [Example 123, (1-(3,4-dichlorophenyl-sulfonyl)-2,3-dihydro-1H-pyrido [2,3-b][1,4]oxazin-7-yl)(4-methylpiperazin-1-yl)methanone] yielded an EC50 of 3000 to 30000 nM.
